Earlier results on one compound are cited in patent US8491930B2, “Pharmaceutical formulation containing ibuprofen and codeine” (Farmasierra Manufacturing, S.L., priority 2008, dated 2013).

The structures appear in SMILES notation.

Take `CC(C)Cc1ccc(C(C)C(=O)O)cc1` (centres unmarked) [Ibuprofen, 2-(4-isobutyl-phenyl)propionic acid]: the “Solubility in dilute alkaline solutions” value (dilute alkaline solutions) is “soluble in dilute alkaline solutions”. Besides, the Solubility in water entry (water) is “practically insoluble in water”.
